Experimental data as given in paper PMC12408324.
These are yes or no findings as the source states them, for the method shown. Binding seen in cells or lysates may run through a third protein. Some results given as binding are weak or reduced against the parent protein; the word gives no strength. Tags and fused reporters may be left off the sequences shown.

Amino acid sequences for entries named in this document (tags omitted).
UniProt P19474: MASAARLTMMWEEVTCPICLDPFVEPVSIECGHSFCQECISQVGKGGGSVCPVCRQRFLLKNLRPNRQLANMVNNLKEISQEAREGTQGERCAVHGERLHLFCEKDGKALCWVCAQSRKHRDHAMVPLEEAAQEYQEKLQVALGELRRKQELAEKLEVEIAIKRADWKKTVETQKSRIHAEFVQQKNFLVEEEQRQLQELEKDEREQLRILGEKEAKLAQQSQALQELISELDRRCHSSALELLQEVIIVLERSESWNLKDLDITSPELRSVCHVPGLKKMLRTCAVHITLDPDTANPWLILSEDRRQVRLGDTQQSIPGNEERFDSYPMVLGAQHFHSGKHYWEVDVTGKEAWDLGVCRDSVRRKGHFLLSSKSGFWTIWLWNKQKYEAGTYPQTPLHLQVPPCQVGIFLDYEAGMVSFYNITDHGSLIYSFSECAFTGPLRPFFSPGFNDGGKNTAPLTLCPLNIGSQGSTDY

Molecular target: T1, Flag-tagged ID1 (human) (UniProt P41134)
T1 sequence: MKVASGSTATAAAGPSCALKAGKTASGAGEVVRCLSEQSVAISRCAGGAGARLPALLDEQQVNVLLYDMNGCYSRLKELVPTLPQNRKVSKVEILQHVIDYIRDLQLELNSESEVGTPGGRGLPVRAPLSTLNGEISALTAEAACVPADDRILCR
Assay: co-IP; PANC-1 and AsPC-1 cells with Flag-tagged ID1; normoxia or hypoxia (3% O2, 12 h); NP-40 lysis buffer (50 mM Tris-HCl pH 7.5, 150 mM NaCl, 1% NP-40); anti-FLAG M2 magnetic beads overnight at 4°C; western blot

## TRIM21 (Tripartite motif-containing protein 21) (from UniProt P19474 1-475)
  binding: binds
